These are yes or no findings as the source states them, for the method shown. For some assays here: Binding calls can cover weak binding; strength is not graded here.
Tests used:
[1] = biological target: CH505.TF mutant gp120 M8 (HIV-1); assay: direct-binding ELISA (OD450), panel 'CH505.TF gp120 M8'
[2] = biological target: CH505.TF mutant gp120 M6 (HIV-1); assay: direct-binding ELISA (OD450), panel 'CH505.TF gp120 M6'
[3] = biological target: CH505.TF mutant gp120 M20 (HIV-1); assay: ELISA
[4] = biological target: CH505.TF mutant gp120 M8 (HIV-1); assay: ELISA
RNP (ribonucleoprotein) [5] = assay: condition: <100 relative luminescence units; up to 50 ug/ml; AtheNA Multi-Lyte ANA
SSA [6] = assay: as above
Sm (Smith antigen) [7] = assay: as above
RNP (ribonucleoprotein) [8] = assay: ELISA, LogAUC grade
SSA [9] = assay: ELISA, LogAUC grade
Sm (Smith antigen) [10] = assay: ELISA, LogAUC grade
[11] = biological target: CH505.TF mutant gp120 M6 (HIV-1); assay: ELISA of B cell culture supernatant

Row | Binder | binding [1] | binding [2] | binding [3] | binding [4] | other results
1 | CH490 (antibody, V domains shown) VH: QVQLVQSGAAVKKPGASVRVSCKASGYTFTSSHIHWVRQAPGQALEWLGMIDPRFGRPTRPQKFQGRVTLTRDTYTTTVYMSLSSLTPEDTAVYYCARSVETSESYLHFDYWGQGTLVTVSS VL: EIVLTQSPATLSVSPGERATLSCRASQSVRSNIAWYQQKPGQAPRLLIHGASTRATGIPGRFSGSGSGPEFTLAISSVQSEDFAVYYCQQYNDWWTFGQGTKVEIK | no binding (tested: 100 ug/ml) | binds |  |  | 
2 | CH491 (antibody, V domains shown) VH: QVQLVQSGAAVKRPGASVTISCRASGYTFTTYYIHWVRQAPGQGLELMGWINPRGGRTDYSYRFEDRVSMYRDTSMSIVYMDLRNLKSADTAVYYCVRNVGTSGSLLHYDFWGQGSLVTVSS VL: EIVLTQSPATLSVSPGERVTLSCRASQSVRNNLAWYRQKRGQAPRLLIYGASTRATGIPARFSGSGSGTEFTLTISSMQSEDFAVYYCQQYNNWWTFGQGTKVEIK | no binding (tested: 100 ug/ml) | binds | no binding (tested: 100 ug/ml) | no binding (tested: 100 ug/ml) | 
3 | CH492 (antibody, V domains shown) VH: QVQLVQSGAAVKKPGASVRVSCKASGYTFTSSHIHWVRQAPGQGPEWMGMVDPRFGRPTYAQKFQGRVAMTRDIYTSTVYMDLRSLKSEDTAIYFCVRNAETEGSLLHIEYWGQGTRVTVSS VL: EIVLTQSPATLSVSPGERATLSCRASQSVRSNIAWYQQKPGQAPRLLIHGASTRATGIPGRFSGSGSGPEFTLAISSVQSEDFAVYYCQQYNDWWTFGQGTKVEIK | binds | binds |  |  | 
4 | CH493 (antibody, V domains shown) VH: QVRLLQYGGGVKRPGASMTISCVASGYNFNDYYIHWVRQAPGQGLELMGWIDPSGGRTDYAGAFGDRVSMYRDKSMNTLYMDLRSLRSGDTAMYYCVRNVGTAGSLLHYDHWGLGVMVTVSS VL: EIVLTQSPATLSVSPGERVTLSCRASQSVRNNLAWYRQKRGQAPRLLIYGASTRATGIPARFSGSGSGTEFTLTISSMQSEDFAVYYCQQYNNWWTFGQGTKVEIK | binds | binds |  |  | 
5 | CH235 (antibody, V domains shown) VH: QVQLVQSGAEVKKPGASVTVSCQASGYTFTNYYVHWVRQAPGQGLQLMGWIDPSWGRTNYAQNFQGRITMTRDTSTSTVYMEMRSLRSEDTAVYYCARNVATEGSLLHYDYWGQGTLVTVSA VL: EIVLTQSPATLSVSPGERATLSCRASQSVRSNLAWYQQRPGQAPRLLIYGTSTRATGVPARFSGRGSGTEFTLAISSMQSEDFAVYLCLQYNNWWTFGQGTKVEIK | no binding (tested: 100 ug/ml) | binds | no binding (tested: 100 ug/ml) | no binding (tested: 100 ug/ml) | binding (RNP (ribonucleoprotein) [5]): no binding; binding (SSA [6]): no binding; binding (Sm (Smith antigen) [7]): no binding
6 | CH555 (antibody, V domains shown) VH: QVQLVQSGATVKKPRASVTLSCRTSGYNFIDYFIHWVRRAPGQRLEVMGYIDPSRGRPDYAPNFRDRVSLYRDTSMSIVYLDLRDLTPDDTAIYYCVRSEGTEGTVLHYDHWGPGTRVTVSP VL: EIVLTQSPDTLSASPGERVTLSCRASQSVGTKVAWYRHVRGQPPRLLIYGASTRAAGIPARFSGGGSGTNFTLIINNFQSEDFAEYLCQQYKSWWTFGQGTKVDNK |  |  | no binding (tested: 100 ug/ml) | no binding (tested: 100 ug/ml) | binding (RNP (ribonucleoprotein) [8]): no binding; binding (SSA [9]): no binding; binding (Sm (Smith antigen) [10]): no binding
7 | CH235.13 (antibody, V domains shown) VH: QVQLVQSGGGVKRPGSTTTISCVASGYSFNDYYIHWVRQAPGQGLEVLGFIDPSNGRTNYAGAFGDRFSMYRDKSMETLYMDLRNLRSDDTAMYYCVRNVGTAGSLLHYDHWGTGSKIIVSS VL: EIVLTQSPATLSASPGERVTLTCRASRGVRNNVAWYQHNVGQSPRLLIYDASTRAPGIPARFSGSASGTEFTLAISSIQSEDFTLYYCHQYNNWWTFGQGTRVDIN |  |  | no binding (tested: 100 ug/ml) | no binding (tested: 100 ug/ml) | binding (RNP (ribonucleoprotein) [8]): no binding; binding (SSA [9]): no binding; binding (Sm (Smith antigen) [10]): no binding
8 | CH556 (antibody, V domains shown) VH: QVQLVQSGGTVKSPGTSVTLSCKTSGYNFIDYYIHWVRRAPGQRPELMGYIDPSHGRPDYEGKFRDRISLYRDTSTSVVYMDVRGLRLDDTALYYCVRGGGVEVSSNHYDHWGPGTMVFVSP VL: ETTLTQSPDTLSASPGERVTLSCRAAQSVGSQVAWFRHIRGQPPRLLISGASTRAAGVPARFSGSGSGTDFTLTISGMQSEDFAEYFCQQYHMWWTFGQGTRVDKN |  |  |  |  | binding (RNP (ribonucleoprotein) [8]): no binding; binding (SSA [9]): no binding; binding (Sm (Smith antigen) [10]): no binding
9 | CH236 (antibody, V domains shown) VH: QVQLVQSGAAVKRPGASVTISCRASGYTFTTYYIHWVRQAPGQRLELMGMIDPSRGRTDYAQKFQGRVTMSRDTSTSTLYMELRSLRPDDTALYYCVRNVGTEGSLLHYDYWGQGTLVTVSS VL: EIVLTQSPATLSVSPGERVTLSCRASQSVRNNLAWYRQKRGQAPRLLIYGASTRATGIPARFSGSGSGTEFTLTISSMQSEDFAVYYCQQYNNWWTFGQGTKVEIK |  |  | no binding (tested: 100 ug/ml) | no binding (tested: 100 ug/ml) | binding (RNP (ribonucleoprotein) [5]): no binding
10 | CH557 (antibody, V domains shown) VH: QVRLAQYGGGVKRLGATMTLSCVASGYTFNDYYIHWVRQAPGQGFELLGYIDPANGRPDYAGALRERLSFYRDKSMETLYMDLRSLRYDDTAMYYCVRNVGTAGSLLHYDHWGSGSPVIVSS VL: EIVLTQSPATLSASPGERVTLTCRASRSVRNNVAWYQHKGGQSPRLLIYDASTRAAGVPARFSGSASGTEFTLAISNLESEDFTVYFCLQYNNWWTFGQGTRVDIK |  |  | no binding (tested: 100 ug/ml) |  | binding [11]: binds
11 | CH241 (antibody, V domains shown) VH: QVQLVQSGAAVKKPGASVRVSCKASGYTFTSSHIHWVRQAPGQGPEWMGMIDPSVGRPTTAGKFQGRVTMTRDRYTSTAYMDLSSLRSEDTAVYYCARSVETTGSLLYFDYWGQGTLITVSS VL: EIVLTQSPATLSVSPGERATLSCRASQSVRSNIAWYQQKPGQAPRLLIHGASTRATGIPGRFSGSGSGPEFTLAISSVQSEDFAVYYCQQYNDWWTFGQGTKVEIK |  |  |  |  | binding (RNP (ribonucleoprotein) [5]): no binding; binding (SSA [6]): no binding; binding (Sm (Smith antigen) [7]): no binding
